For one assay, the target named is Flag-Beclin 1-ΔBH3ΔCCD. As to the kind of experiment: co-IP; 293FT cells co-transfected with Flag-Beclin 1 (FL) or a Beclin 1 deletion construct and MDM2, MDMX or RB; total cell lysates, IP-western.
The target in the next assay is Flag-Beclin 1-ΔBH3. Described as above.

The values that follow come from PMC9563141.

No constants are given. Whether binding was seen depends on the method and setting. Binding seen in cells or lysates may run through a third protein. For part of these data: A result given as binding can be weak or reduced; the word gives no strength.

B1: RB (transfected) (protein, UniProt P06400 1-928)
chain: MPPKTPRKTAATAAAAAAEPPAPPPPPPPEEDPEQDSGPEDLPLVRLEFEETEEPDFTALCQKLKIPDHVRERAWLTWEKVSSVDGVLGGYIQKKKELWGICIFIAAVDLDEMSFTFTELQKNIEISVHKFFNLLKEIDTSTKVDNAMSRLLKKYDVLFALFSKLERTCELIYLTQPSSSISTEINSALVLKVSWITFLLAKGEVLQMEDDLVISFQLMLCVLDYFIKLSPPMLLKEPYKTAVIPINGSPRTPRRGQNRSARIAKQLENDTRIIEVLCKEHECNIDEVKNVYFKNFIPFMNSLGLVTSNGLPEVENLSKRYEEIYLKNKDLDARLFLDHDKTLQTDSIDSFETQRTPRKSNLDEEVNVIPPHTPVRTVMNTIQQLMMILNSASDQPSENLISYFNNCTVNPKESILKRVKDIGYIFKEKFAKAVGQGCVEIGSQRYKLGVRLYYRVMESMLKSEEERLSIQNFSKLLNDNIFHMSLLACALEVVMATYSRSTSQNLDSGTDLSFPWILNVLNLKAFDFYKVIESFIKAEGNLTREMIKHLERCEHRIMESLAWLSDSPLFDLIKQSKDREGPTDHLESACPLNLPLQNNHTAADMYLSPVRSPKKKGSTTRVNSTANAETQATSAFQTQKPLKSTSLSLFYKKVYRLAYLRLNTLCERLLSEHPELEHIIWTLFQHTLQNEYELMRDRHLDQIMMCSMYGICKVKNIDLKFKIIVTAYKDLPHAVQETFKRVLIKEEEYDSIIVFYNSVFMQRLKTNILQYASTRPPTLSPIPHIPRSPYKFPSSPLRIPGGNIYISPLKSPYKISEGLPTPTKMTPRSRILVSIGESFGTSEKFQKINQMVCNSDRVLKRSAEGSNPPKPLKKLRFDIEGSDEADGSKHLPGESKFQQKLAEMTSTRTRMQKQKMNDSMDTSNKEEK
As to B1, the binding entry with Flag-Beclin 1-ΔBH3ΔCCD is “no binding”.

B2: MDMX (transfected) (protein, UniProt O15151 1-490)
chain: MTSFSTSAQCSTSDSACRISPGQINQVRPKLPLLKILHAAGAQGEMFTVKEVMHYLGQYIMVKQLYDQQEQHMVYCGGDLLGELLGRQSFSVKDPSPLYDMLRKNLVTLATATTDAAQTLALAQDHSMDIPSQDQLKQSAEESSTSRKRTTEDDIPTLPTSEHKCIHSREDEDLIENLAQDETSRLDLGFEEWDVAGLPWWFLGNLRSNYTPRSNGSTDLQTNQDVGTAIVSDTTDDLWFLNESVSEQLGVGIKVEAADTEQTSEEVGKVSDKKVIEVGKNDDLEDSKSLSDDTDVEVTSEDEWQCTECKKFNSPSKRYCFRCWALRKDWYSDCSKLTHSLSTSDITAIPEKENEGNDVPDCRRTISAPVVRPKDAYIKKENSKLFDPCNSVEFLDLAHSSESQETISSMGEQLDNLSEQRTDTENMEDCQNLLKPCSLCEKRPRDGNIIHGRTGHLVTCFHCARRLKKAGASCPICKKEIQLVIKVFIA
As to B2, the binding entry with Flag-Beclin 1-ΔBH3 is reported as “binds”; with Flag-Beclin 1-ΔBH3ΔCCD it was “no binding”.
